Experimental data: PubChem BioAssay AID1508597 (Cure First, 2020)

Assay: 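Genes whose silencing sensitises or protects ovarian cancer cells against rucaparib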 (primary screen)
Cell system: human ovarian carcinoma lines grown from tumours: OCI-P5x (papillary serous) and OCI-C5x (clear cell)
Reagent: siRNA pool against human genes, 1.25 pmol siRNA per well
Duration: 72 h or 96 h, depending on the cell culture
Treatment: rucaparib 20 µM (about IC30) or vehicle, present until read-out
Rucaparib or vehicle: Vehicle
Cell line: OCI-C5x (clear cell)
Detection: 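ATP luminescence measured at 72 or 96 h according to the culture, then normalised and expressed as percent viability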
Reading the numbers: viability, normalised: higher = more viable cells remaining
Call rule: 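Active when normalised viability falls below 80 percent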
Calls: active = viability under 80%; inactive = viability 80% or more
Shown is an unselected part of the about 2,100 reagents, under one of the conditions tested. 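Calls flag viability under 80% in either arm, not effects specific to rucaparib; the reference for percent is not stated.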 Entries without a mark were called inactive. Some reagents were tested in more than one well and are listed for each. No sequences are given here. Not stated in the record: the 100% reference.

MED8, technical replicate 1
- viability, normalised (%): 47.4 (active)

MED8, technical replicate 2
- viability, normalised (%): 45.5 (active)

MED8, technical replicate 3
- viability, normalised (%): 48.2 (active)

RPS6KB2, technical replicate 1
- viability, normalised (%): 57.4 (active)

RPS6KB2, technical replicate 2
- viability, normalised (%): 59.2 (active)

RPS6KB2, technical replicate 3
- viability, normalised (%): 39 (active)

GMEB1, technical replicate 1
- viability, normalised (%): 43.2 (active)

GMEB1, technical replicate 2
- viability, normalised (%): 51 (active)

GMEB1, technical replicate 3
- viability, normalised (%): 38.9 (active)

BRDT, technical replicate 1
- viability, normalised (%): 50.7 (active)

BRDT, technical replicate 1
- viability, normalised (%): 50.8 (active)

BRDT, technical replicate 2
- viability, normalised (%): 50.4 (active)

BRDT, technical replicate 2
- viability, normalised (%): 49.1 (active)

BRDT, technical replicate 3
- viability, normalised (%): 40.7 (active)

BRDT, technical replicate 3
- viability, normalised (%): 60 (active)

ITPKB, technical replicate 1
- viability, normalised (%): 39.9 (active)

ITPKB, technical replicate 2
- viability, normalised (%): 46.9 (active)

ITPKB, technical replicate 3
- viability, normalised (%): 37.7 (active)

DHX57, technical replicate 1
- viability, normalised (%): 46.8 (active)

DHX57, technical replicate 2
- viability, normalised (%): 60.4 (active)

DHX57, technical replicate 3
- viability, normalised (%): 59.4 (active)

Already shown: entries from further up.
BRDT, technical replicate 2
- viability, normalised (%): 49.1 (active)

BRDT, technical replicate 3
- viability, normalised (%): 40.7 (active)

BRDT, technical replicate 3
- viability, normalised (%): 60 (active)

ITPKB, technical replicate 1
- viability, normalised (%): 39.9 (active)
